Values from PubChem BioAssay AID504795 (Drosophila RNAi Screening Center, 2011).
Assay: 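Knock-downs causing abnormal branching, bundling, swelling or growth of cultured neurons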 (primary screen). Cells: primary Drosophila neurons and glia. Reagent: long dsRNA against Drosophila genes, 250 ng dsRNA per well. Timing: one week. Measured: 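Descriptive morphology terms assigned by visual inspection of live automated images of GFP-marked cells, taken one week after adding 250 ng dsRNA per well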.
This is not the whole library: the list holds selected reagents. 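Every listed dsRNA shows some phenotype; how reagents were selected for listing is not stated.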 Names joined by + are all predicted targets of the reagent. No sequences are given here.

no.	target	amplicon	phenotype seen, replicate 1	phenotype seen, replicate 2
1	CG46301	DRSC01916	axon bundles split apart	
2	CG34357	DRSC12211	too many neurite branches	abnormal cell clusters
3	CG1394	DRSC19539	too many neurite branches	
4	Gld	DRSC12595	too many neurite branches	
5	CG8508	DRSC16436	abnormal cell clusters	
6	CenG1A	DRSC03506	beaded; swollen axons	
7	CG32820 + CG17450 + CG32819	DRSC21803	axon bundles split apart	
8	loh	DRSC01122	reduced axon outgrowth	
9	RpL10	DRSC11947	reduced axon outgrowth	sheet-like cell extensions
10	RpS2	DRSC03614	too many neurite branches	
11	Rlip	DRSC16828	axon bundles split apart	
12	pre-mod(mdg4)-W + pre-mod(mdg4)-Y + mod(mdg4) + 3 more	DRSC16328	abnormal cell clusters	
13	eIF4G1	DRSC17218	beaded; swollen axons	
14	nAChRalpha5	DRSC22785	too many neurite branches	
15	CG3603	DRSC18317	too many neurite branches	
16	Xrp1	DRSC15283	cell fragments present	
17	aly	DRSC08707	abnormal cell clusters	
18	CG13722	DRSC21616	axon bundles split apart	
19	CG6951	DRSC10755	too many neurite branches	
20	pgc	DRSC04099	fewer cells	
21	Grx1	DRSC10727	reduced axon outgrowth	
22	cid	DRSC07592	too many neurite branches	
23	dmrt11E	DRSC19715	axon bundles split apart	
24	Nipped-B	DRSC07815	too many neurite branches	
25	CAH13	DRSC06128	sheet-like cell extensions	
26	CG30470 (retired record)	DRSC05553	too many neurite branches	
27	CG13314	DRSC09985	axon bundles split apart	
28	rad (retired record)	DRSC22865	axon bundles split apart	
29	dysc	DRSC10273	abnormal cell clusters	reduced axon outgrowth
30	dysc	DRSC11040	fewer cells	
31	CG33268	DRSC10143	too many neurite branches	
32	MtnC	DRSC22879	reduced axon outgrowth	
33	kappaB-Ras + CG30503	DRSC07636	abnormal cell clusters	
34	tfc	DRSC21704	abnormal cell clusters	
35	mRpL18	DRSC06142	beaded; swollen axons	
36	Jheh2	DRSC06530	too many neurite branches	
37	CG42703	DRSC03973	reduced axon outgrowth	
38	Elovl7	DRSC15452	too many neurite branches	axon bundles split apart
39	Elovl7	DRSC21570	too many neurite branches	
40	Tom40	DRSC18796	sheet-like cell extensions	
41	sqz	DRSC16980	axon bundles split apart	
42	alphaTub84B	DRSC12622	axon bundles split apart	reduced axon outgrowth
43	S-Lap8	DRSC06870	axon bundles split apart	
44	CG14958	DRSC08417	axon bundles split apart	
